The source of these data is paper PMC13142658.

Amino acid sequences for entries named in this document (tags omitted). A change or cut given only in a name is not applied to a line headed by its entry.
UniProt P26450: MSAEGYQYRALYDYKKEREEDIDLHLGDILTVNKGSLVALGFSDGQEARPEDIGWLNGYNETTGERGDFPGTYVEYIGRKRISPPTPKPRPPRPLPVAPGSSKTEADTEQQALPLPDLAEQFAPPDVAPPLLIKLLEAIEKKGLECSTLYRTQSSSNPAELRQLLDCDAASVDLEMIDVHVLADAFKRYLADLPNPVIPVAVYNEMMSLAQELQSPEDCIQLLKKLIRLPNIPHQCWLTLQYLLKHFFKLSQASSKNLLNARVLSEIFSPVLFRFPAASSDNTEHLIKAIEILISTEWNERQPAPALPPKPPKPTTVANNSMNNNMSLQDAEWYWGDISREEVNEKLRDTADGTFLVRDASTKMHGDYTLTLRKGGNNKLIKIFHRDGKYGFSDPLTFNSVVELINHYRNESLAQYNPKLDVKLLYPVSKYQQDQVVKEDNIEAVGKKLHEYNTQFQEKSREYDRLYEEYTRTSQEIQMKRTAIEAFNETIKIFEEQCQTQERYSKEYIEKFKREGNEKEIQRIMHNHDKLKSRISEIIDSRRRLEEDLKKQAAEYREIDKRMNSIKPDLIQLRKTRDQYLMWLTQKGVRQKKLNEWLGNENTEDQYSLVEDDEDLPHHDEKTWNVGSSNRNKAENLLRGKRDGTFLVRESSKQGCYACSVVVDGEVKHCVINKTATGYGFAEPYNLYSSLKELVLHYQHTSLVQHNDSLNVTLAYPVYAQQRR

Results are given in words; binding and its absence hold for the method and conditions named. In cells and extracts the contact can be indirect. Some results given as binding are weak or reduced against the parent protein; the word gives no strength.

The experiment concerns the target T1, TACI (mouse (endogenous in mouse splenic B cells)) (UniProt Q9ET35).
T1 sequence: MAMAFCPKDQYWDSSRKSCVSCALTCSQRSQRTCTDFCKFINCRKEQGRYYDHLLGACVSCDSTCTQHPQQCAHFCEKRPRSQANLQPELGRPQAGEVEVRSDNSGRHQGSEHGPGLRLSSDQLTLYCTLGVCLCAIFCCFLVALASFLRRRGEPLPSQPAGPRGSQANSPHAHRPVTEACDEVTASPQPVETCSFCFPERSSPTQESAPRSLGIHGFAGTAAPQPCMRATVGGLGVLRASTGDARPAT
Kind of experiment: co-IP; goat polyclonal anti-mouse-TACI and protein-G Dynabeads, cleared lysates of 2 x 10^7 LPS blasts (1% IGEPAL CA-630, 150 mM NaCl), 4°C; cells stimulated with APRIL, BAFF (200 ng/ml) or media only for 15 min at 37°C; control IP with normal goat IgG; immunoblot.

With “PI3Kδ (p85α regulatory subunit and p110δ catalytic subunit) (from UniProt P26450 1-724; O35904 1-1043) (complex)”, the binding result is on record as “binds”.
